{"source": "PubChem BioAssay AID1259254 – NCATS – 2017", "aim": "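Gene knock-downs that lead to re-replication, shown by excess G2 DNA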 (primary screen)", "cells": "human HCT116 colorectal cancer cells", "reagent": "single siRNA against human genes", "timing": "3 days", "read-out": "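Imaged Hoechst DNA stain sorts each cell into a cycle phase by DNA amount; per plate, G2 fraction set to 0% for non-targeting and 100% for GMNN siRNA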", "reading the numbers": "G2 robust z-score: higher = more G2 cells, more excess DNA replication", "active means": "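An siRNA counts as active if its G2 robust z-score lies at least 5 MADs above the screen median; here such calls match roughly 38% of GMNN control or more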", "note": "This is one part, drawn at random, of about 59,000 reagents tested. About 1,550 of all reagents (2.6%) were called active. 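G2 share is only a proxy for re-replication; each gene was hit by three separate siRNAs, and active genes were retested.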 Unmarked entries are inactive. Reagents against one gene are numbered here. Further read-outs or replicates are left out here. The record does not give: the amount of reagent."}
{"Target gene": "ZMYND15", "siRNA no.": 1, "G2 robust z-score": -0.998}
{"Target gene": "ZMYND15", "siRNA no.": 2, "G2 robust z-score": 2.01}
{"Target gene": "ZMYND15", "siRNA no.": 3, "G2 robust z-score": -0.512}
{"Target gene": "ATP8B4", "siRNA no.": 1, "G2 robust z-score": "12.2 (active)"}
{"Target gene": "ATP8B4", "siRNA no.": 2, "G2 robust z-score": 0.05}
{"Target gene": "ATP8B4", "siRNA no.": 3, "G2 robust z-score": 0.551}
{"Target gene": "DRP2", "siRNA no.": 1, "G2 robust z-score": 0.529}
{"Target gene": "DRP2", "siRNA no.": 2, "G2 robust z-score": -0.885}
{"Target gene": "DRP2", "siRNA no.": 3, "G2 robust z-score": -0.37}
{"Target gene": "PLXDC2", "siRNA no.": 1, "G2 robust z-score": -0.349}
{"Target gene": "PLXDC2", "siRNA no.": 2, "G2 robust z-score": 1.99}
{"Target gene": "PLXDC2", "siRNA no.": 3, "G2 robust z-score": -1.21}

2 entries from above, reformatted.
Target gene | siRNA no. | G2 robust z-score
ZMYND15 | 2 | 2.01
ZMYND15 | 3 | -0.512

Next records follow:
{"Target gene": "IL1RN", "siRNA no.": 1, "G2 robust z-score": -0.477}
{"Target gene": "IL1RN", "siRNA no.": 2, "G2 robust z-score": -0.976}
{"Target gene": "IL1RN", "siRNA no.": 3, "G2 robust z-score": -0.724}
{"Target gene": "LETM1", "siRNA no.": 1, "G2 robust z-score": 0.729}
{"Target gene": "LETM1", "siRNA no.": 2, "G2 robust z-score": -0.602}
{"Target gene": "LETM1", "siRNA no.": 3, "G2 robust z-score": -0.6}
{"Target gene": "UBE2B", "siRNA no.": 1, "G2 robust z-score": -1.29}
{"Target gene": "UBE2B", "siRNA no.": 2, "G2 robust z-score": 2.72}
{"Target gene": "UBE2B", "siRNA no.": 3, "G2 robust z-score": -0.586}
{"Target gene": "CRABP1", "siRNA no.": 1, "G2 robust z-score": -0.501}
{"Target gene": "CRABP1", "siRNA no.": 2, "G2 robust z-score": 1.7}
{"Target gene": "CRABP1", "siRNA no.": 3, "G2 robust z-score": -0.709}
